Paper PMC11094052
Results are given in words; binding and its absence hold for the method and conditions named. In cells and extracts the contact can be indirect. Some results given as binding are weak or reduced against the parent protein; the word gives no strength.

Chains of the proteins cited; added tags and fusions are not shown.
UniProt P42859: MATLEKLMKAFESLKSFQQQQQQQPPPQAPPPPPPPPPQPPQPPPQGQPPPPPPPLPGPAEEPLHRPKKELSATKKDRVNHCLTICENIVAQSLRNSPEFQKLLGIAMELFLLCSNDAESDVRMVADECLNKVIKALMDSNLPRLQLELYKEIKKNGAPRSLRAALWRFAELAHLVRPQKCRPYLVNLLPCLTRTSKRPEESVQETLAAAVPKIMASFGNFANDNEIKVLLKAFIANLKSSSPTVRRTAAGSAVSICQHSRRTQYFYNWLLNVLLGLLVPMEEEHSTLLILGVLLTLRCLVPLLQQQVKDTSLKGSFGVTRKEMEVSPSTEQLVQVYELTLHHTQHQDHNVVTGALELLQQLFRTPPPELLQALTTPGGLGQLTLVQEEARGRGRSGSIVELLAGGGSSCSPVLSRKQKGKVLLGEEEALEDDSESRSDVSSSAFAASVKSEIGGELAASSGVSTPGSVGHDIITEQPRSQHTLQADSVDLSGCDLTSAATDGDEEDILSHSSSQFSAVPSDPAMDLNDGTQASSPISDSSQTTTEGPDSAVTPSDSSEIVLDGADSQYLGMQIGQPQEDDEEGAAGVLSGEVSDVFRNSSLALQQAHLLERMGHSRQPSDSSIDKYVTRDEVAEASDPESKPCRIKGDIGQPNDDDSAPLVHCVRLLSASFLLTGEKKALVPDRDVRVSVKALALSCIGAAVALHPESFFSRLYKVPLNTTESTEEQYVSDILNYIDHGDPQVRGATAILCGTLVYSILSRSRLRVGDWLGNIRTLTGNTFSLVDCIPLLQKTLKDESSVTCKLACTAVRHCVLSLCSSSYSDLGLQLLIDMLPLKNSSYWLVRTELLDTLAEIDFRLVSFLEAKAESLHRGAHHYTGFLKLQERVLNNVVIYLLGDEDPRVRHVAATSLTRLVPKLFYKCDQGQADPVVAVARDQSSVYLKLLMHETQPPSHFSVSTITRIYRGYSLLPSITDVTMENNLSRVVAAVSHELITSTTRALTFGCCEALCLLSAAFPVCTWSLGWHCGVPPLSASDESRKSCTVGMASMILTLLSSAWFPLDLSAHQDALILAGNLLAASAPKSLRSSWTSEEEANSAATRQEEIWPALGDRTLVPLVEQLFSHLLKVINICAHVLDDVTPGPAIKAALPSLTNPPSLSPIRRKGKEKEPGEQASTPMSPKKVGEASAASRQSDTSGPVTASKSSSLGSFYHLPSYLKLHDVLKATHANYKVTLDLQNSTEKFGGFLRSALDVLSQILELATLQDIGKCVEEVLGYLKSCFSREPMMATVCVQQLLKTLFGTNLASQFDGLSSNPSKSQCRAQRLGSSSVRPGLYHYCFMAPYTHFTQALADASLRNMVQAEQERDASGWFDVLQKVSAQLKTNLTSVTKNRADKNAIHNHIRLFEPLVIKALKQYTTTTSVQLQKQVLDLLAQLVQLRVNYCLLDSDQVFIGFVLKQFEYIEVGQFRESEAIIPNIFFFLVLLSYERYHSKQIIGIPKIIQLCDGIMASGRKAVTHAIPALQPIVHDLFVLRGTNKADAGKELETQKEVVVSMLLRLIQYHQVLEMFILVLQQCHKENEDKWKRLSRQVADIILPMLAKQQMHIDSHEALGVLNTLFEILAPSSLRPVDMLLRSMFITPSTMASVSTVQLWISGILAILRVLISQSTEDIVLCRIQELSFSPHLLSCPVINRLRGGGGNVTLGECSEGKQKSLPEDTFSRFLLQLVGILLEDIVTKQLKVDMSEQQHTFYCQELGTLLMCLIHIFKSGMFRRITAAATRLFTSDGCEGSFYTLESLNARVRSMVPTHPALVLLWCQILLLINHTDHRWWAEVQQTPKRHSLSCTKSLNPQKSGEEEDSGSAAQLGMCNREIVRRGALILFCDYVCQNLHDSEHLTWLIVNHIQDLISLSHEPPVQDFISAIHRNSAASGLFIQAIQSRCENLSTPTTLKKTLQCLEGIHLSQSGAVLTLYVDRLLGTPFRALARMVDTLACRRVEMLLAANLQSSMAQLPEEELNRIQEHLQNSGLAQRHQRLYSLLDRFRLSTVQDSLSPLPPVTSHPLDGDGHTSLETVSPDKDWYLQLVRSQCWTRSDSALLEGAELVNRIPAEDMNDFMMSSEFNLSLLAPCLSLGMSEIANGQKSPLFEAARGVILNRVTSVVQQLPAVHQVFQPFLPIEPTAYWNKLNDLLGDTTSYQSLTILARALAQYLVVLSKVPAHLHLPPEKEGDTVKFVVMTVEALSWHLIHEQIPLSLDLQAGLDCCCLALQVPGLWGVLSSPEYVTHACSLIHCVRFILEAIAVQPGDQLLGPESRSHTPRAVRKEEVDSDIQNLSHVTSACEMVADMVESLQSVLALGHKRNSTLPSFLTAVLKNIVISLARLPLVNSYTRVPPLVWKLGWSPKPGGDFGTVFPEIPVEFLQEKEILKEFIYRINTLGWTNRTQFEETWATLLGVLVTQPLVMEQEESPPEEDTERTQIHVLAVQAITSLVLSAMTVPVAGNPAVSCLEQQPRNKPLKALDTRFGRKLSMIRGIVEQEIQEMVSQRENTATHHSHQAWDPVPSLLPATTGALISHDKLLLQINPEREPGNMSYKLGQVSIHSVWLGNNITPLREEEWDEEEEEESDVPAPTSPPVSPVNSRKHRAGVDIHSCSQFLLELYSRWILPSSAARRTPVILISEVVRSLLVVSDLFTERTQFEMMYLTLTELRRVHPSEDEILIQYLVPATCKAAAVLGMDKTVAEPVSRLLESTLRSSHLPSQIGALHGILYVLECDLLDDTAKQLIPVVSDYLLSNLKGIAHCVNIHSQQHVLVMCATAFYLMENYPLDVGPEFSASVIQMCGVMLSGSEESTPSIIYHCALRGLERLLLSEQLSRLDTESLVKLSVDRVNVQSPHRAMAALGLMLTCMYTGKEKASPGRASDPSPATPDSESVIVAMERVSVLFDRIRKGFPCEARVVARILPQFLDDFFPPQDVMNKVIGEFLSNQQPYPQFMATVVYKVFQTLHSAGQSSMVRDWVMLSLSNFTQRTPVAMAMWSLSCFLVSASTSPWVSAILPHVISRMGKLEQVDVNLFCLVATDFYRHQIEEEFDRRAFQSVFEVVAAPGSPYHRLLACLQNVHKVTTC

Target: T1, Huntingtin-associated protein 40 (HAP40), endogenous in mouse brain (mouse (endogenous in HD140Q KI mouse brain)) (UniProt Q00558)
T1 sequence: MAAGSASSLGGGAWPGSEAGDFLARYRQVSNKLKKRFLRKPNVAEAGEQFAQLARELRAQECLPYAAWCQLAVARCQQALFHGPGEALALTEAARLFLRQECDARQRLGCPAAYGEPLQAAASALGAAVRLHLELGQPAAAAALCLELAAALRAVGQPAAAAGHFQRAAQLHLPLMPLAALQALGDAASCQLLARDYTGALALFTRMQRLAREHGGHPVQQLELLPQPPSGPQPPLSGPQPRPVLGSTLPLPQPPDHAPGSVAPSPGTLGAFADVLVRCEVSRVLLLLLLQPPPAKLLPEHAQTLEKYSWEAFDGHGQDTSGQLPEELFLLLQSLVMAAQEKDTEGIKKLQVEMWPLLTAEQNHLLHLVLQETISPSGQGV
Assay: co-IP; brain lysate of heterozygous HD140Q KI mice in 1% NP-40 buffer (150 mM NaCl, 2 mM EDTA, 50 mM Tris pH 8.0); endogenous HAP40 precipitated with the HAP40 antibody and Protein G beads, 4 °C overnight; HTT detected by blot with mEM48, MAB2166 or D7F7

binding: binds
Substance: full-length wild-type HTT (WT HTT), endogenous in mouse brain (from UniProt P42859 1-3119)
